Laboratory results: PMC6918076
No constants are given. Whether binding was seen depends on the method and setting. In cells and extracts the contact can be indirect. Some results given as binding are weak or reduced against the parent protein; the word gives no strength.

The chains behind the UniProt entries cited, without tags or fusion partners. Residues count along the entry.
UniProt P35869, residues 11-848: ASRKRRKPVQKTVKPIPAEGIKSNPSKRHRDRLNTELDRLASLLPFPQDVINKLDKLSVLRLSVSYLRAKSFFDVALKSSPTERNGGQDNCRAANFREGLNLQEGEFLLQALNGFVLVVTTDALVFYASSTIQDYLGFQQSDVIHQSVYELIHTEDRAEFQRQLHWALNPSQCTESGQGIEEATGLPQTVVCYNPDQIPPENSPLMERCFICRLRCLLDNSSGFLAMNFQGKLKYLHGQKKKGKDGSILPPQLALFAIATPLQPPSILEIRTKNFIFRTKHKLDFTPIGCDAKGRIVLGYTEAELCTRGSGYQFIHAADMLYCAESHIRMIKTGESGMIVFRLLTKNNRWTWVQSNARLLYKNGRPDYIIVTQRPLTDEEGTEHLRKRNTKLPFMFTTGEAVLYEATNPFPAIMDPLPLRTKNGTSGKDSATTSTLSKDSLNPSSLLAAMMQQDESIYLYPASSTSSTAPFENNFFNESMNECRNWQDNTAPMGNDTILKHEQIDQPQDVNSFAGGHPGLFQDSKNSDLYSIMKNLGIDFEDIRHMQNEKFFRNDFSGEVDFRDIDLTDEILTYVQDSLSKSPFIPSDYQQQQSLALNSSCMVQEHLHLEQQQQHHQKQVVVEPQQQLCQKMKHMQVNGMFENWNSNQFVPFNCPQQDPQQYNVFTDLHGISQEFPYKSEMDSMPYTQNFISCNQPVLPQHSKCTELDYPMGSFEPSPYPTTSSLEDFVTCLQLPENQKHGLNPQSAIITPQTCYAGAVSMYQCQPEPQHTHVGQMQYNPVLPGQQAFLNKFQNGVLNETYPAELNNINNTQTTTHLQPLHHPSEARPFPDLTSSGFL
UniProt O60563: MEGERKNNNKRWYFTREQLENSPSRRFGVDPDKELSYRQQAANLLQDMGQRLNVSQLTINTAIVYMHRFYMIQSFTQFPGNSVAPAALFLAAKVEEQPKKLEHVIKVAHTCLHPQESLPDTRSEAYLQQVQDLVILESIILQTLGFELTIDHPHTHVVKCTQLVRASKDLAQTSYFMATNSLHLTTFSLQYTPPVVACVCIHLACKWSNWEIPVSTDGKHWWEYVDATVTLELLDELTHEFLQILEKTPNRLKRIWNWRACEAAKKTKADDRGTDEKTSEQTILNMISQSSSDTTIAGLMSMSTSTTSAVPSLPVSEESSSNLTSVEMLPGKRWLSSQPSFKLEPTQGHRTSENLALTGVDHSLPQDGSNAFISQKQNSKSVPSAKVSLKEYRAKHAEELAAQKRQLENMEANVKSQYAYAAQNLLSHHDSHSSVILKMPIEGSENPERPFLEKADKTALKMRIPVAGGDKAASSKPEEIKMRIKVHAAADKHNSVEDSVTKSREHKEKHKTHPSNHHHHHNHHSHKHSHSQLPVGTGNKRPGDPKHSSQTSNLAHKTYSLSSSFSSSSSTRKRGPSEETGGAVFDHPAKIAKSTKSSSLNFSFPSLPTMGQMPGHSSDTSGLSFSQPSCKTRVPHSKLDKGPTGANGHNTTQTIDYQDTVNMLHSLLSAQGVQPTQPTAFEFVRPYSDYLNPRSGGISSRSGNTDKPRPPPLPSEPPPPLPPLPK
UniProt P27540: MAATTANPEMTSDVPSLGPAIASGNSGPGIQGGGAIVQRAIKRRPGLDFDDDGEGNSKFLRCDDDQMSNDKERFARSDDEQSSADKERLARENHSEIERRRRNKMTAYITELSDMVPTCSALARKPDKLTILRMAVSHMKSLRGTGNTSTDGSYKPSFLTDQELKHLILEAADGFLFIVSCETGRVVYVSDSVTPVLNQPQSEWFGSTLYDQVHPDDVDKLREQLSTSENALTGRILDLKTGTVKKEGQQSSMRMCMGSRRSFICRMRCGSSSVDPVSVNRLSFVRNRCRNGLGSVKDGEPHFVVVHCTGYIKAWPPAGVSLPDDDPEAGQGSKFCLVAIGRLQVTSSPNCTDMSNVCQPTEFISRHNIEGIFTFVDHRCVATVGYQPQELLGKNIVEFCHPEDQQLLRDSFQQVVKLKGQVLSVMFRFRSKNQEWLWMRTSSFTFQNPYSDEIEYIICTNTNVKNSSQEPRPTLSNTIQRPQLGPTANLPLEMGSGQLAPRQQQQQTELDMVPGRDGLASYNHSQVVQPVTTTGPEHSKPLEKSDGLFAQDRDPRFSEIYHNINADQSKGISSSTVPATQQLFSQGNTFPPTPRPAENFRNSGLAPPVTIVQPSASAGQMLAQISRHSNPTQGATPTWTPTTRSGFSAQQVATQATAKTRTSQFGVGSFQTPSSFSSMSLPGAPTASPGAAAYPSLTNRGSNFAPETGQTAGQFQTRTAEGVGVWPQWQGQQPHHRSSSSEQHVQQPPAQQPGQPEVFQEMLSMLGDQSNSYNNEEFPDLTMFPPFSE

Assays:
[1] = molecular target: aryl hydrocarbon receptor (AHR) (human (endogenous in HEK293T)) (UniProt P35869); test: co-IP
[2] = molecular target: cyclin T1 (CycT1), component of the P-TEFb complex (human (endogenous in HEK293T)) (UniProt O60563); test: co-IP

binding [1]	binding [2]	Substance
binds	–	AHR nuclear translocator (ARNT) (from UniProt P27540 1-789)
–	binds	aryl hydrocarbon receptor (AHR) (from UniProt P35869 11-848)
